According to PMC8225110, “The Divergent Key Residues of Two Agrobacterium fabrum (tumefaciens) CheY Paralogs Play a Key Role in Distinguishing Their Functions” (Microorganisms, 2021):
No constants are given. Whether binding was seen depends on the method and setting. Binding seen in cells or lysates may run through a third protein. Binding can be weak; no strength is given. Tags and fused reporters may be left off the sequences shown.

By UniProt entry, the sequences of proteins in these tests, tags left out. Where a name states a change or a piece, a line headed by the entry shows the natural chain unless it says otherwise.
UniProt Q7D1A8: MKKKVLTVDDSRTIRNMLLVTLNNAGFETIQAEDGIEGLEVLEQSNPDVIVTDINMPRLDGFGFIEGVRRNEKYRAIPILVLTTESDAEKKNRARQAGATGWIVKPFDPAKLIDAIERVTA
UniProt Q7D1A5: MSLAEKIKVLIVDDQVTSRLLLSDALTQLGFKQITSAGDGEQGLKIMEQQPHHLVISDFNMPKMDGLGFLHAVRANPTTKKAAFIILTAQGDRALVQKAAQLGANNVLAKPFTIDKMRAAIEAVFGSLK

Tests used:
[1] = molecular target: T1, GST-FliM fusion protein (Agrobacterium fabrum C58, UniProt Q44457 1-321); assay: pull-down; GST-FliM on glutathione-Sepharose 4B beads, crude extract of CheY-6×his in PBS with MgCl2 and without acetyl phosphate (non-phosphorylating conditions), 4 °C, 1 h; Western blot with anti-6×his antibody; only the target purified
T1 construct: Flagellar motor switch protein FliM (atu0561) of Agrobacterium fabrum C58; Cloned in pGEX-4T-1; not shown: GST, N-terminal, kept
T1 sequence (looked up): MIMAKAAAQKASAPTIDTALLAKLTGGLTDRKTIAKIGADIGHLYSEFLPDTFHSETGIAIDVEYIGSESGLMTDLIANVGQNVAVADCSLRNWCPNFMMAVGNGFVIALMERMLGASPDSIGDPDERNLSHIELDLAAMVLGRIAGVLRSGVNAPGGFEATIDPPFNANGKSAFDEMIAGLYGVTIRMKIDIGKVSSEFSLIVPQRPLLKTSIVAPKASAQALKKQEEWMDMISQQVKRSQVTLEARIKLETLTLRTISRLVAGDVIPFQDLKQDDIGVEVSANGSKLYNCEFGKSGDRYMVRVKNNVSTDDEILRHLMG

[2] = molecular target: T2, CheA-linker-Cegfp fusion protein (Agrobacterium fabrum C58) (UniProt A9CK76); assay: split reporter; split eGFP; both fusions expressed from one plasmid under the lacZ promoter in A. fabrum deletion mutants (Δay; also Δays lacking CheS); confocal microscopy of polar fluorescence
T2 sequence: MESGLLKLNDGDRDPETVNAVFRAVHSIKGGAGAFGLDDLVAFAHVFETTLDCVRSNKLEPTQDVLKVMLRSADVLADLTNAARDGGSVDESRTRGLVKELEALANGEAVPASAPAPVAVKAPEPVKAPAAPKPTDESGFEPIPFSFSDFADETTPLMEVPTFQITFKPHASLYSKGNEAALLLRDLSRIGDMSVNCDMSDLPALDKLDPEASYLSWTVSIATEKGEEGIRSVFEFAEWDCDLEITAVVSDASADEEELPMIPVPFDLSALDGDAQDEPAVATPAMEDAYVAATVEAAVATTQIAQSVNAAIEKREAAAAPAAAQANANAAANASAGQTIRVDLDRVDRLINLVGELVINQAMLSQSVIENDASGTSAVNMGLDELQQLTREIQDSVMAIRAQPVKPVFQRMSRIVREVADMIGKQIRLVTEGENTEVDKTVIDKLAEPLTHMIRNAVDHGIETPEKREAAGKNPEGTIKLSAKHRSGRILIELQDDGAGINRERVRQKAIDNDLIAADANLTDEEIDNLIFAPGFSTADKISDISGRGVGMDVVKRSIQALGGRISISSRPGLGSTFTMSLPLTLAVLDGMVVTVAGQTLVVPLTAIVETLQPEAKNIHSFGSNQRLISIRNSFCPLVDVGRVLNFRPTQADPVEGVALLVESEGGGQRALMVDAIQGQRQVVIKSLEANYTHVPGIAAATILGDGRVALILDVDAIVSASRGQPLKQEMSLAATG

[3] = molecular target: T2, CheA-linker-Cegfp fusion protein (Agrobacterium fabrum C58); assay: split reporter; split eGFP of CheA-Cegfp with one CheY-Negfp fusion, with the other CheY co-expressed in native form from the same plasmid; confocal microscopy of polar fluorescence

| Substance | binding [1] | binding [2] | binding [3] |
| --- | --- | --- | --- |
| CheY1-6×his fusion protein (non-phosphorylating conditions) (Agrobacterium fabrum C58) | binds weakly | – | – |
| CheW1-Negfp fusion protein (Agrobacterium fabrum C58) | – | binds | – |
| CheY1-linker-Negfp fusion protein (from UniProt Q7D1A8) | – | binds | binds |
| CheY2-6×his fusion protein (non-phosphorylating conditions) (Agrobacterium fabrum C58) | binds weakly | – | – |
| CheY2-Negfp fusion protein (from UniProt Q7D1A5) | – | binds | binds |
| native CheY2 (Agrobacterium fabrum C58) | – | – | binds |
